The values that follow come from PubChem BioAssay AID493027 (The Scripps Research Institute Molecular Screening Center, 2011).

Chains of the proteins cited; added tags and fusions are not shown. Lines headed by an entry give the natural chain unless they say otherwise; changes in a name come on top.
UniProt O60240: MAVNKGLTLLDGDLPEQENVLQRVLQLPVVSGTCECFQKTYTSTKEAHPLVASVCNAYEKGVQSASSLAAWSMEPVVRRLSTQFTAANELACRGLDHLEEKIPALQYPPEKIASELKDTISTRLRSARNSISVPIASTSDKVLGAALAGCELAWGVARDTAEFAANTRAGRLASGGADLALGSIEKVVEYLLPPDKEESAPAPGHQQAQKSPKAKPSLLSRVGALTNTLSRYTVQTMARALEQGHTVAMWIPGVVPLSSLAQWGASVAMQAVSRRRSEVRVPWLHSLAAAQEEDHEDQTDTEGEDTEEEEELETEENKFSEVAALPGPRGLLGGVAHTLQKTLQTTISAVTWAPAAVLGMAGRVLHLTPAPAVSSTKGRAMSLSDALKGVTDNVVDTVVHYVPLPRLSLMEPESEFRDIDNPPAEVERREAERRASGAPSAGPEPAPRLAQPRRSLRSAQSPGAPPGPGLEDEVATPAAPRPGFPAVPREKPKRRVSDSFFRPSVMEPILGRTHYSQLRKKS
UniProt Q8WTS1: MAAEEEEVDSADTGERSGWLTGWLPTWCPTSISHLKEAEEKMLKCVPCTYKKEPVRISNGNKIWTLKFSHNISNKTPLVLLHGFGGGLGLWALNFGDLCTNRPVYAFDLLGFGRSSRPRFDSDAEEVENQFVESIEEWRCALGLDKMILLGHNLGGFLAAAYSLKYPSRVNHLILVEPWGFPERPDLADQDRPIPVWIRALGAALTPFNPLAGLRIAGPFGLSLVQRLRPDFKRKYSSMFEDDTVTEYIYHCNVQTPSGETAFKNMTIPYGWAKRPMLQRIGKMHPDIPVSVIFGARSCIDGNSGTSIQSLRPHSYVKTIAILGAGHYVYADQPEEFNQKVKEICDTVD

Screen size: about 2,000 compounds; about 45 (2%) were called active.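 The calls were made as follows: active = inhibition above the screen-wide mean inhibition plus 3 SD (cut at about 44% in these data); inactive = the rest.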 This is one part of the list.

The experiment has as its target Perilipin-1 (Homo sapiens) + 1-acylglycerol-3-phosphate O-acyltransferase ABHD5 (Homo sapiens) (UniProt O60240+Q8WTS1). Kind of experiment: ABHD5-PLIN1 interaction inhibitors, pilot screen, cell lysate, split luciferase complementation, luminescence, NIH validation set (AID 493027).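 Also: 0% = DMSO wells with the 100% control not disclosed.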 The note with it: split G. princeps luciferase complementation, 4 h; at 7.9 µM, stronger effect = higher value.
As to `CC(=O)OCC1OC(n2ccc(=O)[nH]c2=O)C(O)C1O` (configuration not stated), the inhibition (commonly the relative decrease from the control value, in per cent) is inactive: -5.53%. Turning to `COc1cccc(CC(=O)NCC2COc3ccccc3O2)c1OC` (configuration not stated), the inhibition is inactive: 5.43%. Turning to `Cc1ccc2c(CN3CCN(Cc4ccc5c(c4)OCO5)CC3)cc(=O)oc2c1C`, the inhibition was inactive: 9.15%. Next, `COC(=O)C1=NN(C(=O)c2cccc(Br)c2)C(O)(c2ccc(Cl)cc2)C1` (configuration not stated): inactive: 4.06%; `CCC1(c2ccccc2)NC(=S)N(c2ccc(C)c(C)c2)N1` (configuration not stated): inactive: -0.55%; `Cc1nc2ccccc2n1CC(O)Cn1c2ccccc2c2ccccc21` (configuration not stated): inactive: 19%. On to `O=C(O)CCCCCN=C1CCc2ccccc2N1`, for which the inhibition is inactive: -4.17%. With `CC1(C)CC(=O)C2=C(C1)c1c(ccc3ccccc13)NC2c1ccco1` (configuration not stated), the inhibition was inactive: 21%. For the molecule `C[C@H](CCC(=O)O)[C@H]1CC[C@H]2[C@@H]3C(=O)C[C@@H]4CC(=O)CC[C@]4(C)[C@H]3CC(=O)[C@]12C`, the inhibition is inactive: -0.3%. The figure for `CCOc1ccc(C(=O)NC(C)C2COc3ccccc3O2)cc1` (configuration not stated) is inactive: 5.48%; for `Cc1nc2sccn2c(=O)c1CCN1CCC(=C(c2ccc(F)cc2)c2ccc(F)cc2)CC1` it is inactive: 9.72%; for `CCOC(=O)C1=C(C)NC(C)=C(C(=O)OC)C1c1cccc(Cl)c1Cl` (configuration not stated) it is inactive: 9.57%. Turning to `Cc1ccc2[nH]c3c(c2c1)CCNC3=O`, the inhibition is inactive: -4.86%. Regarding `CCSC(=O)CCCCCCCCCCCO`, the inhibition was inactive: -18.4%. Consider `C=CCc1ccc(OCC(O)COc2ccc(CC=C)cc2OC)c(OC)c1`, for which the inhibition is inactive: -1.62%. `COc1ccc(-c2[nH]ncc2CN(C)C(C)c2ccon2)c(OC)c1` (configuration not stated): the inhibition is inactive: -7.51%. Take `Cc1ncoc1C(=O)N1CCCC(C(=O)c2ccc(-c3ccccc3)c(F)c2)C1` (configuration not stated): the inhibition is inactive: 3.98%. For `O=C(O)c1cnccn1`, the inhibition was inactive: 1.39%. As to `CCN(CC)Cc1c[nH]c2c(C(=O)OC)cccc12`, the inhibition is inactive: -5.49%.

Regarding `COc1ccc(/C=C/C(=O)c2cc3cccc(OC)c3oc2=O)cc1`, the inhibition is active: 60.6%. Take `CN1CCN2c3ccccc3Cc3ccccc3C2C1` (configuration not stated): the inhibition is inactive: -6.34%.

Regarding `O=C(O)CCC(=O)c1ccc(-c2ccccc2)cc1`, the inhibition is inactive: -10.1%. As for `O=C1c2cccc3cccc(c23)C(=O)N1c1ccccn1`, the inhibition is inactive: -1.6%. On to `Cc1cc(C)c(NC(=O)NC(=O)C(Cl)(Cl)Cl)c(C)c1`, for which the inhibition was inactive: -16.6%. With `CC(C)NNC(=O)c1ccncc1`, the inhibition is inactive: -4.87%. For the molecule `CC(=O)N(CCC1(C(C)C)CCOC(C)(C)C1)Cc1ccco1` (configuration not stated), the inhibition was inactive: 2.37%. Take `CC(=O)N=c1sc(S(N)(=O)=O)nn1C`: the inhibition is inactive: -1.46%. On to `Cc1ccccc1C(=O)NNc1ncnc2c1cnn2C`, for which the inhibition was inactive: -10.4%. As for `COc1ccc2[nH]cc(C3N4CC5(C)CN3CC(C)(C4)C5=O)c2c1` (configuration not stated), the inhibition is inactive: -6.37%. As for `COc1c2occc2c(OC)c2c(=O)cc(C(F)(F)C(F)(F)F)oc12`, the inhibition was inactive: -3.55%. Next, `CCOc1ccc2[nH]c3c(=O)n(CCc4ccc(OC)cc4)cnc3c2c1`: inactive: -9.05%; `OC(CCN1CCCCC1)(c1ccccc1)c1ccccc1`: inactive: 5.55%. For `CC(=O)[C@H]1[C@H](C#N)C[C@H]2[C@@H]3CC=C4C[C@@H](O)CC[C@]4(C)[C@H]3CC[C@@]21C`, the inhibition is inactive: 12.6%.

As for `COc1ccc(C(CC(=O)N2CCOCC2)C(C)C)cc1` (configuration not stated), the inhibition is inactive: -0.52%. Turning to `N=c1ccn(CC(=O)NC(N)=O)c2ccccc12`, the inhibition is inactive: 2.11%. As to `CC1(C)CC(C(CC(=O)N2CCCC2)Cc2ccccc2)CCO1` (configuration not stated), the inhibition was inactive: -12.5%. As for `OC(COCc1ccccc1)CN1CCN(Cc2ccc3c(c2)OCO3)CC1` (configuration not stated), the inhibition was inactive: -12.6%. Consider `O=C(NCC1CCCO1)c1ccc(OC2CCN(C(=O)C3CC3)CC2)cc1` (configuration not stated), for which the inhibition is inactive: 0.05%. The figure for `O=C(O)C1CCN(C(=O)COc2ccc3c4c(c(=O)oc3c2)CCC4)CC1` is inactive: -8.92%.

As to `Cc1cc(-c2nn(-c3ccccc3F)cc2CN2CCC(O)CC2)c(C)s1`, the inhibition is inactive: -2.82%. As for `CC[C@H](CO)NCCN[C@H](CC)CO`, the inhibition was inactive: -1.97%. For `Cc1ccccc1NC(=O)C1(C)Cc2ccccc2C(=O)O1` (configuration not stated), the inhibition is inactive: -6.22%. As for `CCOC(=O)[C@H]1O[C@@H]1C(=O)N[C@@H](CC(C)C)C(=O)NCCC(C)C`, the inhibition is inactive: -15.4%. The figure for `CC(C)NCC(O)COc1ccc(CC(N)=O)cc1` (configuration not stated) is inactive: 1.91%.

On to `CC1=NS(=O)(=O)c2cc(Cl)ccc2N1`, for which the inhibition was inactive: -5.93%. Consider `c1ccc(-c2ccc(C(c3ccccc3)n3ccnc3)cc2)cc1` (configuration not stated), for which the inhibition is inactive: 7.37%. Consider `CN(C)CCC(c1ccc(Br)cc1)c1ccccn1` (configuration not stated), for which the inhibition is inactive: -7.82%. With `CC(=O)NC1C(OCc2ccccc2)OC(COC(C)=O)C(OC(C)=O)C1OC(C)=O` (configuration not stated), the inhibition is inactive: 2.99%. The figure for `CCOc1ccc(NC(=O)N[C@@H](CCSC)C(=O)OC)cc1` is inactive: -9.1%; for `C[C@]12CCC(=O)C=C1CC[C@@H]1[C@@H]2CC[C@@]2(C)[C@H]1CC[C@]2(O)C(=O)CO` it is inactive: 1.92%. As for `Cc1oc2ccc(OC(=O)c3cccs3)cc2c1C(=O)OC(C)C`, the inhibition is inactive: 1.63%. On to `COc1ccc(C2NCCC3(O)CCCCC23)c(OC)c1OC` (configuration not stated), for which the inhibition is inactive: -1.74%. With `COc1ccc(C2C(C#N)=C(N)Oc3cc(C)[nH]c(=O)c32)c(OC)c1OC` (configuration not stated), the inhibition was inactive: -14.5%.

As to `CCC1(c2ccccc2)C(=O)NCNC1=O`, the inhibition is inactive: 1.31%. Turning to `O=C(CSCc1ccccc1)NCCCN1CCOCC1`, the inhibition is inactive: -14.5%. On to `CCC(C(=O)Nc1ccc2c(c1)OCCO2)c1ccccc1` (configuration not stated), for which the inhibition is inactive: -3.61%.

As for `Cc1ccc(C2CC(=O)C(C=NCCN3CCN(C(=S)Nc4ccccc4)CC3)=C(O)C2)cc1` (configuration not stated), the inhibition was inactive: -4.47%. Next, `O=C(OCC1OC2OC3(CCCCC3)OC2C2OC3(CCCCC3)OC12)c1ccccc1` (configuration not stated): inactive: -8.19%; `c1ccc2c3c(c(CN4CCCCC4)cc2c1)COC3`: inactive: -4.68%; `Cc1ccc(CSCC(=O)N2CCCC2)cc1`: inactive: -3%. The figure for `Cc1ccc(OCc2nc(-c3cccnc3)no2)cc1C` is inactive: 4.89%; for `Nc1cnn(C2OC(CO)C(O)C2O)c(=O)n1` (configuration not stated) it is inactive: -9.89%; for `Clc1ccc2c(c1)CCc1cccnc1C2=C1CCNCC1` it is inactive: 1.26%. As for `COc1ccc(CCN2C(=O)CSC2c2ccc(OC)c(OC)c2)cc1OC` (configuration not stated), the inhibition was inactive: 1.8%. For the molecule `CCc1c(C(C)=O)oc2ccc3c(C)cc(=O)oc3c12`, the inhibition was inactive: -0.52%. For `O=C1c2ccccc2N2C(=O)c3ccccc3C2N1Cc1ccco1` (configuration not stated), the inhibition was inactive: 21.5%.

On to `CC12CN3CC(C)(CN(C1)C3c1ccc([N+](=O)[O-])o1)C2` (configuration not stated), for which the inhibition is inactive: -1.9%. On to `CC1(C)CC(NCc2ccccc2)CCO1` (configuration not stated), for which the inhibition was inactive: -5.32%.

Regarding `CCN(CC)C(=O)c1ccc(O)c(OC)c1`, the inhibition was inactive: -1.24%. As to `O=C(/C=C/c1ccc(Cl)cc1)NCCc1ccccc1`, the inhibition was inactive: 0.13%. The figure for `COc1ccc(-c2nc3c(=O)n(C)c(=O)[nH]c3n2CCc2ccccc2)cc1` is inactive: -1.13%; for `CC(=O)[C@@]1(O)CC[C@H]2[C@@H]3CCC4=CC(=O)CC[C@]4(C)[C@H]3CC[C@@]21C` it is inactive: -1.37%; for `CC(C)CC(=O)N(Cc1ccc(F)cc1)C1CCS(=O)(=O)C1` (configuration not stated) it is inactive: -7.18%. Next, `COc1ccccc1NC(=O)Cn1c(C)cc(=O)c2cccc(OC)c21`: inactive: 7.27%; `CNCCc1ccccn1`: inactive: -2.31%; `CC(C)CC(NC(=O)c1cccc(Cl)c1)C(=O)O` (configuration not stated): inactive: -9.25%. As for `CC(C)CCNC(=O)[C@H](CC(C)C)NC(=O)[C@H]1O[C@@H]1C(=O)O`, the inhibition is inactive: -3.69%.

As for `CCOc1ccc(N2C(=O)CNC2=S)cc1`, the inhibition is inactive: -7.79%. `Nc1nc2c(ncn2COC(CO)CO)c(=O)[nH]1`: the inhibition is inactive: -6.19%. On to `CC(=O)OC[C@H]1O[C@@H](Sc2cccc3cccnc23)[C@H](OC(C)=O)[C@@H](OC(C)=O)[C@H]1OC(C)=O`, for which the inhibition is inactive: -12.3%. With `Cc1ncc(CN2CCC(CO)(CCc3ccccc3)CC2)s1`, the inhibition was inactive: -4.02%. On to `O=C(/C=C/c1ccccc1)NCC1(c2ccccc2)CCOCC1`, for which the inhibition is inactive: -4.47%.

On to `CC1(C)C2CCC1(C)C(OCC[N+](C)(C)CC(=O)OC1CCCCC1)C2` (configuration not stated), for which the inhibition is inactive: 7.62%. Regarding `COc1ccc(CCn2c(C)cc3c(c2=O)C(c2ccncc2)C(C#N)=C(N)O3)cc1OC` (configuration not stated), the inhibition is inactive: 4.33%. Next, `CC(C)CN(C)Cc1c(C(=O)N2CCc3ccccc3C2)nc2ccc(Cl)cn12`: inactive: 2.31%; `COc1ccc(C(=O)N2c3cc4c(cc3C(C)=CC2(C)C)OCO4)cc1`: inactive: -4.62%. `Cc1cc(C(=O)NC(CC(C)C)C(=O)O)cc(C)c1[N+](=O)[O-]` (configuration not stated): the inhibition was inactive: 0.07%. Next, `NC(N)=NC(N)=Nc1ccc2ccccc2c1`: inactive: -6.89%; `COc1ccc(O)c(C2=Nc3ccccc3N=C(c3ccccc3)C2)c1`: inactive: -7.58%; `CCCNC(=O)NS(=O)(=O)c1ccc(Cl)cc1`: inactive: -4.84%. The figure for `CC(=O)O[C@]1(C(C)=O)CC[C@H]2[C@@H]3C=C(Cl)C4=CC(=O)CC[C@]4(C)[C@H]3CC[C@@]21C` is inactive: 3.4%. As for `Cc1csc(N)n1`, the inhibition is inactive: -6.64%. The figure for `COc1cc2nc(N3CCN(C(=O)C4COc5ccccc5O4)CC3)nc(N)c2cc1OC` (configuration not stated) is inactive: -2.94%. `C[C@@H]1C[C@H]2[C@@H]3CCC4=CC(=O)C=C[C@]4(C)[C@@]3(F)[C@@H](O)C[C@]2(C)[C@H]1C(=O)CO`: the inhibition is inactive: -2.1%. As to `COC(=O)c1cc(COc2ccc3ccc(=O)oc3c2)c(C)o1`, the inhibition was inactive: -9.09%. Regarding `CCN(CCCCOC(=O)c1ccc(OC)c(OC)c1)C(C)Cc1ccc(OC)cc1` (configuration not stated), the inhibition is inactive: -6.73%. `Cc1cc(C(C)(C)C)cc(C)c1CC1=NCCN1`: the inhibition was inactive: -5.42%.
